Results reported in patent EP0331014A2, “Use of ACE inhibitors in diabetes prophylaxis” (THERA - Patent Verwaltungs-GmbH, priority 1988, dated 1989).

Test: Body weight during the three-year prophylaxis study
Type: in vivo, Patienten
Details: 2 X 3 mg tgl., Idealgewicht: Größe (cm)-100-15%
Text: Es wurden 122 übergewichtigte Personen ausgesucht, die im Mittel 25 % Übergewicht und eine gestörte orale Glukosetoleranz hatten. Diese Patienten gaben nach Aufklärung ihr Einverständnis an dieser Studie über 3 Jahre teilzunehmen. Sie hatten bereits 5 bis 10 Versuche einer Gewichtsabnahme hinter sich, die alle erfolglos verlaufen waren. Ein Diabetes mellitus war nach der Definition des World Health Organization-Reports (Techn. Rep. Ser. 646, 1-80, 1980), bei diesen Patieten ausgeschlossen. Sie wurden in zwei gleich starke Gruppen eingeteilt, so daß nach Alter, Ausmaß der Störung des Glucose-Toleranz-Tests (OGTT) und Größe und Dauer des Übergewichts kein Unterschied bestand. Die Patienten wurden in halbjährlichen Abständen ambulant kontrolliert. Wie zu Beginn, wurden bei diesen Kontrollen folgende Blutwerte gemessen: Blutsenkung, Blutbild, Nüchternblutzucker, OGTT, Gewicht, Cholesterin und Triglyzeride, Serum Glutamat-Oxalat-Transaminase (SGOT), Serum Glutamat-Pyruvat Transaminase (SGPT). Damit wurden den Stoffwechesl beeinträchtigende Krankheiten ausgeschlossen.
Sie erste Gruppe erhielt 2 x 3 mg Captopril täglich, die zweite entsprechend Placebo. Die Patienten hatten die Auflage, keine den Stoffwech l beeinträchtigende Medikamente, z.B. Diuretika, β-Blocker ode dergleichen einzunehmen. In beiden Gruppen schieden über den Zeitraum von 3 Jahren 28 Patienten aus verschiede nen Gründen aus. Die Gruppen veränderten sich dadurch jedoch nicht so, daß sie statistisch nicht mehr auswertbar waren.

With C[C@H](CS)C(=O)N1CCC[C@H]1C(=O)O [Captopril, 1-[(2S)-3-Mercapto-2-methylpropionyl]-L-prolin] the “Gewicht (in % des Idealgewichts)” value (ZEITRAUM 1985 -1 (start)) was 126,0 ± 1,1 % des Idealgewichts, the “Gewicht (in % des Idealgewichts)” value (ZEITRAUM 1986 - 2) was 124,1 ± 1,6 % des Idealgewichts and the “Gewicht (in % des Idealgewichts)” value (ZEITRAUM 1987 - 2) was 125,2 ± 1,1 % des Idealgewichts. The “Gewicht (in % des Idealgewichts)” value (ZEITRAUM 1988 - 1) was 125,5 ± 1,6 % des Idealgewichts.
